Measured values as given in patent publication US20050288225A1.
No constants are given. Whether binding was seen depends on the method and setting. Some entries that bind do so weakly or less than the wild type.

The chains behind the UniProt entries cited, without tags or fusion partners. Where a name states a change or a piece, a line headed by the entry shows the natural chain unless it says otherwise.
UniProt O43353: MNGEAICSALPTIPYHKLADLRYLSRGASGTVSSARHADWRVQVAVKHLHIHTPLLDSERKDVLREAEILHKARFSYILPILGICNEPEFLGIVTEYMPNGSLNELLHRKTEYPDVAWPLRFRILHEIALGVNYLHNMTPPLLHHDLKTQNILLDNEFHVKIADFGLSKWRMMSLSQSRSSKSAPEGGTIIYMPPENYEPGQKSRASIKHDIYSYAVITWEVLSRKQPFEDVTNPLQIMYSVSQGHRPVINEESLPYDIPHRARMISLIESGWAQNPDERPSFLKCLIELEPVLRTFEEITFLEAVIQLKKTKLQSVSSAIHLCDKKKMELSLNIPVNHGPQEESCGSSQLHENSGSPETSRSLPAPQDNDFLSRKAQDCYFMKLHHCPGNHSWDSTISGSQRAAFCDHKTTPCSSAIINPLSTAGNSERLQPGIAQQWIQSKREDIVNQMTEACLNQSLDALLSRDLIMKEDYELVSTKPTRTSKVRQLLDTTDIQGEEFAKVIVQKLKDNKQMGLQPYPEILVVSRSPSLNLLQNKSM

Molecular target: B1 protein (Homo sapiens (Human)) (UniProt O43353)
Assay: yeast two-hybrid, LacZ; binder is the DNA-binding hybrid, target the activation hybrid

binding: binds
B1: TRAF1 (protein, UniProt Q13077 1-416, looked up)
chain: MASSSGSSPRPAPDENEFPFGCPPTVCQDPKEPRALCCAGCLSENPRNGEDQICPKCRGEDLQSISPGSRLRTQEKAHPEVAEAGIGCPFAGVGCSFKGSPQSVQEHEVTSQTSHLNLLLGFMKQWKARLGCGLESGPMALEQNLSDLQLQAAVEVAGDLEVDCYRAPCSESQEELALQHFMKEKLLAELEGKLRVFENIVAVLNKEVEASHLALATSIHQSQLDRERILSLEQRVVELQQTLAQKDQALGKLEQSLRLMEEASFDGTFLWKITNVTRRCHESACGRTVSLFSPAFYTAKYGYKLCLRLYLNGDGTGKRTHLSLFIVIMRGEYDALLPWPFRNKVTFMLLDQNNREHAIDAFRPDLSSASFQRPQSETNVASGCPLFFPLSKLQSPKHAYVKDDTMFLKCIVETST
